According to publication PMC4906169:
No constants are given. Whether binding was seen depends on the method and setting. In cells and extracts the contact can be indirect. Sequences can lack the tags named with a protein.

How the values were obtained:
[1] = target: T1, STELLO1 (STL1), BiFC fusion (Yn-STL1 / Yc-STL1) (Arabidopsis thaliana) (UniProt O22943); test: split reporter; BiFC with Yn/Yc halves of VENUS fused to the N-termini; transient co-expression in N. benthamiana epidermal leaf cells, imaged by confocal microscopy 62 h after infiltration
T1 sequence: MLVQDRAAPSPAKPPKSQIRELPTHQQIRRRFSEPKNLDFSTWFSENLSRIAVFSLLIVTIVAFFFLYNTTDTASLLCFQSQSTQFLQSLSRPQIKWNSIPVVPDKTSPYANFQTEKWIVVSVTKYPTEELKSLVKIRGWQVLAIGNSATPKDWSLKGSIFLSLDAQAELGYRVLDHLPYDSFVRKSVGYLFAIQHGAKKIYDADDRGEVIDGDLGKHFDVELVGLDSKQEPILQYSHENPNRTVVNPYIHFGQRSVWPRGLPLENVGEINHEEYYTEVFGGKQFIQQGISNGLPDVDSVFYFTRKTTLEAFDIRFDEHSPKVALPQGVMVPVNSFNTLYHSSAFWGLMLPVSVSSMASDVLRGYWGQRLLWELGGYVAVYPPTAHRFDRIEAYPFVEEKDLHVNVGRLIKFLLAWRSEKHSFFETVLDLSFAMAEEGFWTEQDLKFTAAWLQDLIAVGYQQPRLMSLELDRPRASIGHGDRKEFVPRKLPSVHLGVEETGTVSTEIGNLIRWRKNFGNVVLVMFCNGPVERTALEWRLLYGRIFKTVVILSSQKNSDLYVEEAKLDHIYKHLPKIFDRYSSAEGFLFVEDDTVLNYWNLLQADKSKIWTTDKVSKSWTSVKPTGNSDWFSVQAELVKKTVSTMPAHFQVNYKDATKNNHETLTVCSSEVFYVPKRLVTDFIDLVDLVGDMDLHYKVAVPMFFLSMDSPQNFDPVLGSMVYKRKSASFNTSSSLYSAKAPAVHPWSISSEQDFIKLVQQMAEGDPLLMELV

[2] = target: T2, Cellulose synthase CesA6, BiFC fusion (Arabidopsis thaliana) (UniProt Q94JQ6); test: as above
T2 sequence: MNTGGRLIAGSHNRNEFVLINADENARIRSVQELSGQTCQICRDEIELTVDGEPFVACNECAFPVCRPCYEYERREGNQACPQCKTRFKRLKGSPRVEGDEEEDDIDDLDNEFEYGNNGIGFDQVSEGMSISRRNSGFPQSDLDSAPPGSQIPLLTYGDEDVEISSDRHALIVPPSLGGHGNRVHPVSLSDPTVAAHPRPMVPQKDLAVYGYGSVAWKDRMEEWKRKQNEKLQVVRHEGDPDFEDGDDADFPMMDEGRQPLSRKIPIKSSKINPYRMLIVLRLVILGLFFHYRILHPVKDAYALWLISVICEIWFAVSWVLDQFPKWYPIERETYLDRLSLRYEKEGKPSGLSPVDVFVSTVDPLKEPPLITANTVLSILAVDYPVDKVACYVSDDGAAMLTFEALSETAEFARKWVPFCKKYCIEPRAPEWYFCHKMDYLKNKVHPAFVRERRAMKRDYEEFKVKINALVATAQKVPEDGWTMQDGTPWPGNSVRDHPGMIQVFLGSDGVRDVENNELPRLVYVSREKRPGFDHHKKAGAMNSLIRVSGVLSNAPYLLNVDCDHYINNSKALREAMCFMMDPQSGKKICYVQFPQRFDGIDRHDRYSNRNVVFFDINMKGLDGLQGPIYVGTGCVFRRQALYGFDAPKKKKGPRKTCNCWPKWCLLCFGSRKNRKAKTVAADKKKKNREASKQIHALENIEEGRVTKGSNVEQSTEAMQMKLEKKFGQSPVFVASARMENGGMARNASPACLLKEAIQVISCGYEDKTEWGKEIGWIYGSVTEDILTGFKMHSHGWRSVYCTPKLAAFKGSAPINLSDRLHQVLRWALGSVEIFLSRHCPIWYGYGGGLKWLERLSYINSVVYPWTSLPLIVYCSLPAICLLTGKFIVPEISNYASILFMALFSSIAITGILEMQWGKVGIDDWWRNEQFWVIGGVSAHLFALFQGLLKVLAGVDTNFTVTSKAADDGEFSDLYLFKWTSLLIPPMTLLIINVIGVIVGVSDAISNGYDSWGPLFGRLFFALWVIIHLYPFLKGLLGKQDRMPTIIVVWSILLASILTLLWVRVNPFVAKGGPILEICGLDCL

binding [1]: no binding
binding [2]: no binding
B1: Got1p Arabidopsis homologue, BiFC fusion (protein, UniProt Q6NMM1 1-140)
chain: MASLEMNDLKKIGLGLTGFGVFFTFLGVIFVFDKGLIAMGNILFLAGVTLTIGINPAIQFFTKRQNFKGTISFGLGFLLVVFGWPIFGLLLESYGFLVLFSGFWPTLAVFLQRIPLLGWLLQQPYIRSLLDRYRGRRVPV
